At least one compound was matched to its structure with a doubt left.
Test system: cell aggregates containing pituitary hormone-producing cells (day 63 sort, DX treated for 14 days)
Experiment: GH stimulation test using GRF and GH suppression test using somatostatin
Type: cell-based, human
Details: day 63 sort + 40 days, DX 14 days; somatostatin 100 ng/mL, 24 hr
Procedure: Using cell aggregates obtained by purifying and reaggregating cell aggregates on day 63 after the start of differentiation induction, suspension culturing for 40 days, and treating with DX for 14 days, a GH stimulation test using GRF and a GH suppression test using somatostatin were conducted. Fifteen cell aggregates were transferred to a 6-well culture plate (manufactured by SUMITOMO BAKELITE CO., LTD., for suspension culturing, culture area 9.2 cm^2) containing a serum-free medium (2 mL) supplemented with 20% KSR, cultured for 24 hr under conditions of 37° C., 40% O2, and the culture supernatant was recovered. The cell aggregates were washed with a serum-free medium supplemented with 20% KSR, transferred to a 6-well culture plate containing a new serum-free medium (2 mL) supplemented with 20% KSR, and GRF 2 μg/mL or somatostatin 100 ng/mL was added. After culturing for 24 hr under condition of 37° C., 40% O2, the culture supernatant was recovered. […]

`C[C@H](N)C(=O)NCC(=O)N[C@H]1CSSC[C@@H](C(=O)O)NC(=O)[C@H](CO)NC(=O)[C@H]([C@@H](C)O)NC(=O)[C@H](Cc2ccccc2)NC(=O)[C@H]([C@@H](C)O)NC(=O)[C@H](CCCCN)NC(=O)[C@H](Cc2c[nH]c3ccccc23)NC(=O)[C@H](Cc2ccccc2)NC(=O)[C@H](Cc2ccccc2)NC(=O)[C@H](CC(N)=O)NC(=O)[C@H](CCCCN)NC1=O` [somatostatin] was tested, and the “decrease of the amount of GH secretion by addition of somatostatin” value was 20%.
